In test [1] the target is T1, Phospholipase C-γ1 (PLC-γ1), 1–1219 (UniProt P19174 1-1219).
T1 sequence (looked up): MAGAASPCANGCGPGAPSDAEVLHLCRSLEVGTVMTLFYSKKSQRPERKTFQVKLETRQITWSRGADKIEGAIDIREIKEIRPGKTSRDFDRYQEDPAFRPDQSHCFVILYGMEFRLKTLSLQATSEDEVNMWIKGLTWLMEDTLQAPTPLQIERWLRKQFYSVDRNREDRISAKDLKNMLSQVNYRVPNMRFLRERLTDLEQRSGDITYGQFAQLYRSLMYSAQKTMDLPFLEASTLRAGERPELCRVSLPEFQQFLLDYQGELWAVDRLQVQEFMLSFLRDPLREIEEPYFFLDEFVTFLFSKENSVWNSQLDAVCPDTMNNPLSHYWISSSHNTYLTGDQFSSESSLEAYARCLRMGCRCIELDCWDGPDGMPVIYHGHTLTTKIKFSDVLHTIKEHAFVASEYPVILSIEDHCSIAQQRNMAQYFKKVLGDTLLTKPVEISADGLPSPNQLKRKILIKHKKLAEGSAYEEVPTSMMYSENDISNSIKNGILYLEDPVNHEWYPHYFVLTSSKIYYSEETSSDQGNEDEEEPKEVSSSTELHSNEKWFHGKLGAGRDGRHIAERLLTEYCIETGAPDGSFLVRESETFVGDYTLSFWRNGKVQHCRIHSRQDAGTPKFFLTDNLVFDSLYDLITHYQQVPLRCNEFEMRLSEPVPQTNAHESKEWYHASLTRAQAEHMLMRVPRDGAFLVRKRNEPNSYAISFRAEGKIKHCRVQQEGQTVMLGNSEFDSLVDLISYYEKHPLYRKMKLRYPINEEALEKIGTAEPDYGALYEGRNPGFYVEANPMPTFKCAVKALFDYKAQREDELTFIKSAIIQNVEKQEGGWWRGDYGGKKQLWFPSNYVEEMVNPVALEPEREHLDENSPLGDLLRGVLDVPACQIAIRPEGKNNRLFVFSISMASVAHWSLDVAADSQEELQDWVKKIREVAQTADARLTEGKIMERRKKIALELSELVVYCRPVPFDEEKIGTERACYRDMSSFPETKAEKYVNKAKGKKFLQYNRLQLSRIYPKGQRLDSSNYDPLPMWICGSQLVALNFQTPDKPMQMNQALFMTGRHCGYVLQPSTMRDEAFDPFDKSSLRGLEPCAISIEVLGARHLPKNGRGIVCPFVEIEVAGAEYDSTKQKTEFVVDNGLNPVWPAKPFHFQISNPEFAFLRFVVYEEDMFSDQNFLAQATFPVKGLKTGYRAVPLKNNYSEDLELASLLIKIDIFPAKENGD
Nature of the test: ITC; VP-ITC or PEAQ-ITC; 20 mM Hepes pH 7.4, 100 mM NaCl, 0.1 mM DTT, 5 °C; 4 µM in the cell, 40 µM in the syringe; fit to a single binding site with 1:1 stoichiometry; both purified.

Sequences of proteins named here, by UniProt entry; tags and fusion partners are left off. A change or cut given only in a name is not applied to a line headed by its entry.
UniProt Q13094: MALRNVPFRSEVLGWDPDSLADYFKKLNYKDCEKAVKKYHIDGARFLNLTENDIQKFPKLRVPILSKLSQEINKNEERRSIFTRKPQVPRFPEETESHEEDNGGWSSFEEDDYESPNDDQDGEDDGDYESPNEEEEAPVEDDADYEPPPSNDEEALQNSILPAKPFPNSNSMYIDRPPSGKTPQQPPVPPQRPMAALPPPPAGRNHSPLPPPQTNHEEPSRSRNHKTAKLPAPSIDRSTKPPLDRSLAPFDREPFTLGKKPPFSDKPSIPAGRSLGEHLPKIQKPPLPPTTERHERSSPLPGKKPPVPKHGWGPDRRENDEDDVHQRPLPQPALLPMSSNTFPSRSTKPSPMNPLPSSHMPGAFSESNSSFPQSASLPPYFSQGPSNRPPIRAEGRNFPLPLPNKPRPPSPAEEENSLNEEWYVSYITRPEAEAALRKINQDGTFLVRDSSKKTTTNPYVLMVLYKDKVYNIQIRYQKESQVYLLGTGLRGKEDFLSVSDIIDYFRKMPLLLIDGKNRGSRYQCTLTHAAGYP

In test [2] the target is full-length mouse ITK with C96E/T110I mutations (His6-3C-Halo-tev-ITK(C96E/T110I)-FLAG) (mouse). The description is as above.

No constants are given. Whether binding was seen depends on the method and setting.

With “SLP-76^NA polypeptide (aa 103–258, no affinity mutant) (from UniProt Q13094) (domain or fragment)”, the binding entry in test [1] is given as “no binding (tested: 4 µM in the cell, 40 µM in the syringe)”.

B1: SLP-76 PRR peptide (aa 185–200), wild type (peptide, UniProt Q13094 185-200, looked up)
peptide: QPPVPPQRPMAALPPP
notes: also called SLP-76 185–200 (WT); SLP-76 PRR_(185–200) peptide
Take B1: in test [2], the binding entry was “no binding (tested: 4 µM in the cell, 40 µM in the syringe)”.

Values taken from article PMC13522589, “Weak SLP-76/PLC-γ1 interaction fine-tunes T cell receptor signal strength to optimize T cell responsiveness” (Nature Communications, 2026).
